Test results reported in patent publication US20150017120A1 (MIT, published 2015).
Results are given in words; binding and its absence hold for the method and conditions named. Some results given as binding are weak or reduced against the parent protein; the word gives no strength.

B1: S126P IL-2 (ligand)
chain: APTSSSTSSSTAEAQQQQQQQQQQQQHLEQLLMDLQELLSRMENYRNLKLPRMLTFKFYLPKQATELKDLQCLEDELGPLRHVLDLTQSKSFQLEDAENFISNIRVTVVKLKGSDNTFECQFDDEPATVVDFLRRWIAFCQSIISTSPQ
B2: S126T IL-2 (ligand)
chain: APTSSSTSSSTAEAQQQQQQQQQQQQHLEQLLMDLQELLSRMENYRNLKLPRMLTFKFYLPKQATELKDLQCLEDELGPLRHVLDLTQSKSFQLEDAENFISNIRVTVVKLKGSDNTFECQFDDETATVVDFLRRWIAFCQSIISTSPQ
B3: H82E mouse IL-2 (ligand)
chain: APTSSSTSSSTAEAQQQQQQQQQQQQHLEQLLMDLQELLSRMENYRNLKLPRMLTFKFYLPKQATELKDLQCLEDELGPLREVLDLTQSKSFQLEDAENFISNIRVTVVKLKGSDNTFECQFDDESATVVDFLRRWIAFCQSIISTSPQ
B4: H82S mouse IL-2 (ligand)
chain: APTSSSTSSSTAEAQQQQQQQQQQQQHLEQLLMDLQELLSRMENYRNLKLPRMLTFKFYLPKQATELKDLQCLEDELGPLRSVLDLTQSKSFQLEDAENFISNIRVTVVKLKGSDNTFECQFDDESATVVDFLRRWIAFCQSIISTSPQ
B5: H82A mouse IL-2 (ligand)
chain: APTSSSTSSSTAEAQQQQQQQQQQQQHLEQLLMDLQELLSRMENYRNLKLPRMLTFKFYLPKQATELKDLQCLEDELGPLRAVLDLTQSKSFQLEDAENFISNIRVTVVKLKGSDNTFECQFDDESATVVDFLRRWIAFCQSIISTSPQ
B6: H82G mouse IL-2 (ligand)
chain: APTSSSTSSSTAEAQQQQQQQQQQQQHLEQLLMDLQELLSRMENYRNLKLPRMLTFKFYLPKQATELKDLQCLEDELGPLRGVLDLTQSKSFQLEDAENFISNIRVTVVKLKGSDNTFECQFDDESATVVDFLRRWIAFCQSIISTSPQ
B7: Q121R mouse IL-2 (ligand)
chain: APTSSSTSSSTAEAQQQQQQQQQQQQHLEQLLMDLQELLSRMENYRNLKLPRMLTFKFYLPKQATELKDLQCLEDELGPLRHVLDLTQSKSFQLEDAENFISNIRVTVVKLKGSDNTFECRFDDESATVVDFLRRWIAFCQSIISTSPQ
B8: Q121S mouse IL-2 (ligand)
chain: APTSSSTSSSTAEAQQQQQQQQQQQQHLEQLLMDLQELLSRMENYRNLKLPRMLTFKFYLPKQATELKDLQCLEDELGPLRHVLDLTQSKSFQLEDAENFISNIRVTVVKLKGSDNTFECSFDDESATVVDFLRRWIAFCQSIISTSPQ
B9: Q121A mouse IL-2 (ligand)
chain: APTSSSTSSSTAEAQQQQQQQQQQQQHLEQLLMDLQELLSRMENYRNLKLPRMLTFKFYLPKQATELKDLQCLEDELGPLRHVLDLTQSKSFQLEDAENFISNIRVTVVKLKGSDNTFECAFDDESATVVDFLRRWIAFCQSIISTSPQ
B10: Q121G mouse IL-2 (ligand)
chain: APTSSSTSSSTAEAQQQQQQQQQQQQHLEQLLMDLQELLSRMENYRNLKLPRMLTFKFYLPKQATELKDLQCLEDELGPLRHVLDLTQSKSFQLEDAENFISNIRVTVVKLKGSDNTFECGFDDESATVVDFLRRWIAFCQSIISTSPQ

Biological target: T1, soluble murine CD25 (murine, UniProt P01590 22-236, limits assumed)
T1 construct: also called soluble CD25; mouse CD25
T1 sequence (looked up): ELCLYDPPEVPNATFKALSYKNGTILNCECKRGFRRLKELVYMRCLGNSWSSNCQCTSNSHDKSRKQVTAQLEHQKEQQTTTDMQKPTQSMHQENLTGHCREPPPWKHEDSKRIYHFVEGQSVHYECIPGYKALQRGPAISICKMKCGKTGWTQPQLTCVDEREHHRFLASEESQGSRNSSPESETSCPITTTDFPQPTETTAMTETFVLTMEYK
Assay: yeast surface display, labeling with soluble CD25, FACS

Binder	binding
B1	binds
B2	binds

Biological target: T1, soluble murine CD25
Assay: yeast surface display, labeling with 5 or 50 nM soluble CD25

Binder	binding
B3	binds
B4	binds
B5	binds
B6	binds
B7	binds
B8	binds
B9	binds
B10	binds
